Laboratory results as given in publication PMC10815131, “Novel Pitolisant-Derived Sulfonyl Compounds for Alzheimer Disease” (International Journal of Molecular Sciences, 2024).

Tested on: Male C57BL/6 mice
Details: mouse, in vivo, ip

**Q.** For `CN1[C@@H]2C[C@@H](OC(=O)[C@H](CO)c3ccccc3)C[C@H]1[C@@H]1O[C@@H]12` [scopolamine], which “Discrimination index in NORT compared with controls” value is on record?
**A.** Its value is “significantly lower discrimination index compared with controls”.
